The target of assay [1] is NR2A, full length clone (NMDA receptor subunit) (UniProt Q12879). In words: co-immunoprecipitation from lysates of co-transfected 293 cells, Western blot. A general note: A western blot detects proteins with antibodies after separation by electrophoresis.
For assay [2], the target named is NR2B, full length clone (NMDA receptor subunit) (UniProt Q13224). Described as above.

By UniProt entry, the sequences of proteins in these tests, tags left out. Residues count along the entry.
UniProt Q13224, residues 27-1484: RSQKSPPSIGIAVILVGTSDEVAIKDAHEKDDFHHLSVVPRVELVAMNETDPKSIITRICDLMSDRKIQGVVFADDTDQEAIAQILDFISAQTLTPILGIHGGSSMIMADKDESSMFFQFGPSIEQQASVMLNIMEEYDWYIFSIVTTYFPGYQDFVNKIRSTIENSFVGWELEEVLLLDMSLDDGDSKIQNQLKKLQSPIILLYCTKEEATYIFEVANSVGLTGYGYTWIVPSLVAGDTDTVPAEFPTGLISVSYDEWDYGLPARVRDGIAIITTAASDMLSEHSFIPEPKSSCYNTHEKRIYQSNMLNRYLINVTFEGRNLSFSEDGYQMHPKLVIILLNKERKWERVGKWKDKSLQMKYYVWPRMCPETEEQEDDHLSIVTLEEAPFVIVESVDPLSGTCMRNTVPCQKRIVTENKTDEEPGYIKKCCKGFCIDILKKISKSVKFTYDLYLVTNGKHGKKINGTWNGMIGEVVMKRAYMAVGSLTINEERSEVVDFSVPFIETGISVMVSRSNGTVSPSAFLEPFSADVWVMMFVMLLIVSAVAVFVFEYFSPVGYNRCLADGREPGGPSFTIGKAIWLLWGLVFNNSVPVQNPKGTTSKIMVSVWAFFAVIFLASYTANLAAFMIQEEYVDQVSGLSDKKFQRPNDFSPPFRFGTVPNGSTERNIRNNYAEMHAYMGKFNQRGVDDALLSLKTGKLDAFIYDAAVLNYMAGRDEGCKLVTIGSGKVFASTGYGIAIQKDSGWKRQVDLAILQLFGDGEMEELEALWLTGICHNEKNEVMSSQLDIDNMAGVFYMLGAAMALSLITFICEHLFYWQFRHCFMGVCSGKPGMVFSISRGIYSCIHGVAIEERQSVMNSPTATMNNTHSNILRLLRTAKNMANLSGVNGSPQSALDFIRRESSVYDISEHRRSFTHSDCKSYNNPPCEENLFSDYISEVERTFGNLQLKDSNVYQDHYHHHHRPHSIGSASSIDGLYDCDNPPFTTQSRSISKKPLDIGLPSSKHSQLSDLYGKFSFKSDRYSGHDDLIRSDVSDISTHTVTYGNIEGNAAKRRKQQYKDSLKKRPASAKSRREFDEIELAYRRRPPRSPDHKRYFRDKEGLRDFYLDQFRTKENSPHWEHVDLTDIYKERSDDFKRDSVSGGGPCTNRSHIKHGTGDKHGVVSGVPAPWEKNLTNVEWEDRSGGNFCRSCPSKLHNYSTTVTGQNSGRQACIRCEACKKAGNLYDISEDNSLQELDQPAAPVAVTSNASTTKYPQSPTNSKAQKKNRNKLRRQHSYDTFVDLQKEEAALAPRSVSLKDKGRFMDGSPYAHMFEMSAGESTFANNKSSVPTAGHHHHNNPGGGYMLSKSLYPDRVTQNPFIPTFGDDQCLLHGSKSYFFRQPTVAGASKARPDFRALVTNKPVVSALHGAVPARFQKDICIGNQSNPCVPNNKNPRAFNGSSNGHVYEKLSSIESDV
UniProt P29074: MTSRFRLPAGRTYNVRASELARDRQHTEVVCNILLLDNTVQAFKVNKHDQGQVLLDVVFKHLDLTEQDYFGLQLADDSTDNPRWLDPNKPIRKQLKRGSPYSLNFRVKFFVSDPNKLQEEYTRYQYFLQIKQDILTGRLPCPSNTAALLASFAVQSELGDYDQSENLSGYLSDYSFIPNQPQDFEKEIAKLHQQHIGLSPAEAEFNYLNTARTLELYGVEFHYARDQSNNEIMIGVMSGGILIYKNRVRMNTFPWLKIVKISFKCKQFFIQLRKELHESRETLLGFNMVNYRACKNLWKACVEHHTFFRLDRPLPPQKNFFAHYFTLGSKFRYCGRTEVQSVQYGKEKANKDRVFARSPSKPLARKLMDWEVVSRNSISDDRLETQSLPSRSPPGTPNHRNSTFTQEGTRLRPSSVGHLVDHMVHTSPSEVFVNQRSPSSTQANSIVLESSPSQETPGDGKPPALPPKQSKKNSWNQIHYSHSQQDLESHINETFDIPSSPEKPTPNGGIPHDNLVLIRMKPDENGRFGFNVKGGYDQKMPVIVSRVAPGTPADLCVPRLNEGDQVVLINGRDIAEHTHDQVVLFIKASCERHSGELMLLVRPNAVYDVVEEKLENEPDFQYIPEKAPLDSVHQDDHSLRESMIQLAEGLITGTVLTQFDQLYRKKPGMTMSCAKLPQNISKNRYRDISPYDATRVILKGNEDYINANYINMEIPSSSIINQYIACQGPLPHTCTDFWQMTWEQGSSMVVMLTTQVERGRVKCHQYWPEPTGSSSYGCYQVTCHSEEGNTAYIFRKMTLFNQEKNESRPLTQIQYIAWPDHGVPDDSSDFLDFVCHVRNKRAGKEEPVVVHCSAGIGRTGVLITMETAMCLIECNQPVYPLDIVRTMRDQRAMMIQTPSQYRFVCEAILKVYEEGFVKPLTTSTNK

Results are given in words; binding and its absence hold for the method and conditions named. Binding seen in cells or lysates may run through a third protein. Some binding calls cover weakened binding; strength is not graded here.

As to “PTPMEG, full length clone (amino-terminal myc-tag, c-terminal HA tag) (from UniProt P29074 1-926) (enzyme)”, the binding entry in assay [1] and in assay [2] was “binds” throughout.

For the origin of these results see patent US20050266509A1, “Interaction of NMDA receptor with protein tyrosine phosphatase” (AGY Therapeutics, Inc., priority 2003, published 2005).
